The target of assay [1] is T1, GST-MED13 IDRc (residues 500-1069) (human) (UniProt Q9UHV7).
T1 sequence: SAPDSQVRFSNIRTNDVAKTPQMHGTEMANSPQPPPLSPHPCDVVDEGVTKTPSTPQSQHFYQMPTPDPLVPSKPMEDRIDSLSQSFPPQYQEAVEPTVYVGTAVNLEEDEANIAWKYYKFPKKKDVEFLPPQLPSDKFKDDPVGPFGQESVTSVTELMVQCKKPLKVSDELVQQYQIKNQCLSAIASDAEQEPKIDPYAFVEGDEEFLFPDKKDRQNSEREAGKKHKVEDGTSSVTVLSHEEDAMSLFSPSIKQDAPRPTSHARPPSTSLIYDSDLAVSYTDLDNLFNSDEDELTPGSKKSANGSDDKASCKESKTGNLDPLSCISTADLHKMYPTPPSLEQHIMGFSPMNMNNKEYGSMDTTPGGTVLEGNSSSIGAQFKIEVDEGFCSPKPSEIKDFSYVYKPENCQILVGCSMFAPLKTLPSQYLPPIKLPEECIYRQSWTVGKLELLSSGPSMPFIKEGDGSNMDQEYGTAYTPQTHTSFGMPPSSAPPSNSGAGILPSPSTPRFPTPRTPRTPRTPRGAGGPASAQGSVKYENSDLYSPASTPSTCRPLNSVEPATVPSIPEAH
As to the kind of experiment: pull-down.

By UniProt entry, the sequences of proteins in these tests, tags left out.
UniProt Q93074, whole entry: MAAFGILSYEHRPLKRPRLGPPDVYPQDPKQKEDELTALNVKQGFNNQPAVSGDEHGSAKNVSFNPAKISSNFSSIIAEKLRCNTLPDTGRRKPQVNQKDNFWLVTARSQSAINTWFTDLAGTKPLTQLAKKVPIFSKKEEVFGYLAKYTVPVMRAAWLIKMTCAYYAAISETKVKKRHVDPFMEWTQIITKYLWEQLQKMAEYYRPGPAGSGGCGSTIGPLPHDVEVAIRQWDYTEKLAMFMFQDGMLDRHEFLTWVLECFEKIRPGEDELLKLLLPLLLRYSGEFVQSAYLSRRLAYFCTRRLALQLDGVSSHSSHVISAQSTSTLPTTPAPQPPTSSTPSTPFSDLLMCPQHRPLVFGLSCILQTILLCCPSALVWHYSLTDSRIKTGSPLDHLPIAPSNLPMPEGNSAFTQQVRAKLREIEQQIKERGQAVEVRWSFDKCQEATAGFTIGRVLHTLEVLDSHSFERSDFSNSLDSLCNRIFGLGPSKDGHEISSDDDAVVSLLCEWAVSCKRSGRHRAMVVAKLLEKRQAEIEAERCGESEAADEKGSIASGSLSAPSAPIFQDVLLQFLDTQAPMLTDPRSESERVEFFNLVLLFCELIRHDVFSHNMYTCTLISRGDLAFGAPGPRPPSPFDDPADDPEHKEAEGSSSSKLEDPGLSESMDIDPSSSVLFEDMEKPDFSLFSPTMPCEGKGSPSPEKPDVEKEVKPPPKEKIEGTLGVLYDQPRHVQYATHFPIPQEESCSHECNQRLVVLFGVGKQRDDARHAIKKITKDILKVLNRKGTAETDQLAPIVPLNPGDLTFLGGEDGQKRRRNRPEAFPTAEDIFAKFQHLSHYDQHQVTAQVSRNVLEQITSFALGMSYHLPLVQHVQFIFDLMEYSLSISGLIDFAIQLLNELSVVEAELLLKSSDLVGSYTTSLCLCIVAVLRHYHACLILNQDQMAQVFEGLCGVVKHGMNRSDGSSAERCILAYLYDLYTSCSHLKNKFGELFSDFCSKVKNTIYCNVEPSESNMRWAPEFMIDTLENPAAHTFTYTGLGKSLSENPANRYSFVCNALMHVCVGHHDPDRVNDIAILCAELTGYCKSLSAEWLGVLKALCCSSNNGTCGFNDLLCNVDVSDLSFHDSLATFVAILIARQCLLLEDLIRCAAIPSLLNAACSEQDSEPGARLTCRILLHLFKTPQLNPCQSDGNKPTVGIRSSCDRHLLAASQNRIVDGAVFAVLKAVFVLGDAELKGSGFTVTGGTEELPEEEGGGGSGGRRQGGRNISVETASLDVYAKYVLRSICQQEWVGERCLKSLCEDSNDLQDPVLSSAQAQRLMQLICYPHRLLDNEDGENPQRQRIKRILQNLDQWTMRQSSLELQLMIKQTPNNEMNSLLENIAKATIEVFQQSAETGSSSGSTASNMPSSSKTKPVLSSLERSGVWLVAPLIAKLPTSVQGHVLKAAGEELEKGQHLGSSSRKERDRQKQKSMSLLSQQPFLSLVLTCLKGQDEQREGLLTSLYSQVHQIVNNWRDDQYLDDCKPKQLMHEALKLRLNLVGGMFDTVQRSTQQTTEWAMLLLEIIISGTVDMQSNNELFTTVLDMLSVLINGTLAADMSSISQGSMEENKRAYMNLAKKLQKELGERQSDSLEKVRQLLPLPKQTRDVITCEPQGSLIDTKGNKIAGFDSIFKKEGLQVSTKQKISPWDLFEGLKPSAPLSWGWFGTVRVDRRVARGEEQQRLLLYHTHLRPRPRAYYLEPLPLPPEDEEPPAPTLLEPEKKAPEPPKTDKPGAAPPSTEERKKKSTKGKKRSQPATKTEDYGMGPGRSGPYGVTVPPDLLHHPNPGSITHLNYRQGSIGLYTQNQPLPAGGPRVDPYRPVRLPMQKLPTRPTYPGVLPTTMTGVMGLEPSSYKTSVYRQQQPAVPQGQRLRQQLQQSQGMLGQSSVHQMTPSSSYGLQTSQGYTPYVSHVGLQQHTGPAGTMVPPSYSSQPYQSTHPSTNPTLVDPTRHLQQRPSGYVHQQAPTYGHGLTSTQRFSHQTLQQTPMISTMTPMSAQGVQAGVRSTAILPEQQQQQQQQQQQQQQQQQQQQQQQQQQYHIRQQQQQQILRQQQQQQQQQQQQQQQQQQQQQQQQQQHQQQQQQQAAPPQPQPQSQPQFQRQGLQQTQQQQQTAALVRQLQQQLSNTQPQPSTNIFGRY

Assay [2] concerns the target MED12 (endogenous) (human (endogenous in 293-F)), Q93074. Nature of the assay: cross-linking. The following applies: remark: other sources report otherwise.
For assay [3], the target named is MED13 (endogenous) (human (endogenous in 293-F)), Q9UHV7. As to the kind of experiment: cross-linking. The following applies: remark: other sources report otherwise.

These are yes or no findings as the source states them, for the method shown. Some results given as binding are weak or reduced against the parent protein; the word gives no strength. Tags and fused reporters may be left off the sequences shown.

B1: MED26 (endogenous) (protein, UniProt O95402 1-600)
chain: MTAAPASPQQIRDRLLQAIDPQSNIRNMVAVLEVISSLEKYPITKEALEETRLGKLINDVRKKTKNEELAKRAKKLLRSWQKLIEPAHQHEAALRGLAGATGSANGGAHNCRPEVGAAGPPRSIHDLKSRNDLQRLPGQRLDRLGSRKRRGDQRDLGHPGPPPKVSKASHDPLVPNSSPLPTNGISGSPESFASSLDGSGHAGPEGSRLERDENDKHSGKIPVNAVRPHTSSPGLGKPPGPCLQPKASVLQQLDRVDETPGPPHPKGPPRCSFSPRNSRHEGSFARQQSLYAPKGSVPSPSPRPQALDATQVPSPLPLAQPSTPPVRRLELLPSAESPVCWLEQPESHQRLAGPGCKAGLSPAEPLLSRAGFSPDSSKADSDAASSGGSDSKKKKRYRPRDYTVNLDGQVAEAGVKPVRLKERKLTFDPMTRQIKPLTQKEPVRADSPVHMEQQSRTELDKQEAKASLQSPFEQTNWKELSRNEIIQSYLSRQSSLLSSSGAQTPGAHHFMSEYLKQEESTRQGARQLHVLVPQSPPTDLPGLTREVTQDDLDRIQASQWPGVNGCQDTQGNWYDWTQCISLDPHGDDGRLNILPYVCLD
Consider B1, for which the binding entry in assay [1] was “no binding”.

B2: Flag-tagged CDK8 expressed in 293-F cells, P49336 1-464 (enzyme)
chain: MDYDFKVKLSSERERVEDLFEYEGCKVGRGTYGHVYKAKRKDGKDDKDYALKQIEGTGISMSACREIALLRELKHPNVISLQKVFLSHADRKVWLLFDYAEHDLWHIIKFHRASKANKKPVQLPRGMVKSLLYQILDGIHYLHANWVLHRDLKPANILVMGEGPERGRVKIADMGFARLFNSPLKPLADLDPVVVTFWYRAPELLLGARHYTKAIDIWAIGCIFAELLTSEPIFHCRQEDIKTSNPYHHDQLDRIFNVMGFPADKDWEDIKKMPEHSTLMKDFRRNTYTNCSLIKYMEKHKVKPDSKAFHLLQKLLTMDPIKRITSEQAMQDPYFLEDPLPTSDVFAGCQIPYPKREFLTEEEPDDKGDKKNQQQQQGNNHTNGTGHPGNQDSSHTQGPPLKKVRVVPPTTTSGGLIMTSDYQRSNPHAAYPNPGPSTSQPQSSMGYSATSQQPPQYSHQTHRY
On to B2, for which the binding entry in assay [2] and in assay [3] was “binds” throughout.

B3: CCNC (endogenous), P24863 1-283 (protein)
chain: MAGNFWQSSHYLQWILDKQDLLKERQKDLKFLSEEEYWKLQIFFTNVIQALGEHLKLRQQVIATATVYFKRFYARYSLKSIDPVLMAPTCVFLASKVEEFGVVSNTRLIAAATSVLKTRFSYAFPKEFPYRMNHILECEFYLLELMDCCLIVYHPYRPLLQYVQDMGQEDMLLPLAWRIVNDTYRTDLCLLYPPFMIALACLHVACVVQQKDARQWFAELSVDMEKILEIIRVILKLYEQWKNFDERKEMATILSKMPKPKPPPNSEGEQGPNGSQNSSYSQS
Consider B3, for which, in assay [3], the binding entry is listed as “binds”.

The values above are taken from article doi:10.1101/2024.07.01.601608.
